Test results taken from article PMC9922819.
No constants are given. Whether binding was seen depends on the method and setting. In cells and extracts the contact can be indirect. Some entries that bind do so weakly or less than the wild type.

Sequences of proteins named here, by UniProt entry; tags and fusion partners are left off. A change or cut given only in a name is not applied to a line headed by its entry. A line that says so, or that is headed by a name, gives the form on record, which may keep a tag or linker. Residues count along the entry.
UniProt Q96D31: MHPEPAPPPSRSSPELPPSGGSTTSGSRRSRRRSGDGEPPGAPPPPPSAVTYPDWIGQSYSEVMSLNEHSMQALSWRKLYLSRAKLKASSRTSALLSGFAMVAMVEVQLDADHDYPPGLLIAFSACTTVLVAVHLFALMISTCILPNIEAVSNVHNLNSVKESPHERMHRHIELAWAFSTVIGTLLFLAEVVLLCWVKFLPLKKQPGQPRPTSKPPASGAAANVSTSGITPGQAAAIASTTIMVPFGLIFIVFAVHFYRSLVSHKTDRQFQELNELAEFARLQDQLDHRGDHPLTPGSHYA
Orai1α N-terminal deletion mutant Orai1αΔN1–38 (pEYFP): residues 39-301 of Q96D31
Orai1β-eGFP (CMV-promoter): residues 64-301 of Q96D31
PKCβ2 (P05771-2, form named): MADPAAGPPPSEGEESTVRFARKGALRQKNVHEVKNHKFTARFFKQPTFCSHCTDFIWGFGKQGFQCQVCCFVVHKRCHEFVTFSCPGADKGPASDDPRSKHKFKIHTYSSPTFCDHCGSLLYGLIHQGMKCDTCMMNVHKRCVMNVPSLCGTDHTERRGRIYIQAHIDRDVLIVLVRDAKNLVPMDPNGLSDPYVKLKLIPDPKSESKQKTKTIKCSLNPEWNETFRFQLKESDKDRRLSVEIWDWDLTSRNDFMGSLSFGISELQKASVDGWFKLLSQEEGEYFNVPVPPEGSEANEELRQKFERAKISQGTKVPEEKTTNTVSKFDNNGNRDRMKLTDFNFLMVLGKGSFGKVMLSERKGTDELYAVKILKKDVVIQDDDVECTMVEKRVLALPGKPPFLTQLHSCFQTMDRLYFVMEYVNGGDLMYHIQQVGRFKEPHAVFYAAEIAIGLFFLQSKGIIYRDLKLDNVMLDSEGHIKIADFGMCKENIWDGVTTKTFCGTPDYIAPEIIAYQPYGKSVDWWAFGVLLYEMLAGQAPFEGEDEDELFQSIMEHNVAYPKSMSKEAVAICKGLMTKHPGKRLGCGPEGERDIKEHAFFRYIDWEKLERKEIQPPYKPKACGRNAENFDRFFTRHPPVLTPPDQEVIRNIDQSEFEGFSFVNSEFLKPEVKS

Columns and labels:
Assay in all cases: co-IP; cell lysates (1% Nonidet P-40 buffer pH 8, 137 mM NaCl, 2 mM EDTA) immunoprecipitated with anti-Orai1 antibody and protein A-agarose overnight at 4 °C, blotted with anti-PKCβ2; cells at rest or stimulated with 100 μM CCh (1-30 min; 5 min for the variants) in the presence of extracellular …
[1] = target: Orai1α N-terminal deletion mutant Orai1αΔN1–38 (pEYFP) (UniProt Q96D31)
[2] = target: Orai1α-eGFP (CMV-promoter) (UniProt Q96D31)
[3] = target: Orai1β-eGFP (CMV-promoter) (UniProt Q96D31)
[4] = target: native Orai1 (human (endogenous in HEK-293)) (UniProt Q96D31)

binding [1]: binds
binding [2]: binds
binding [3]: no binding
binding [4]: binds
Substance: PKCβ2 (from UniProt P05771-2 1-673) (enzyme)
